PubChem BioAssay AID1259425 – University of Nebraska Medical Center – 2018
The deposit covers about 14,000 reagents; below is a random part of them. Not all columns of the deposit are shown. The record does not give: the time to read-out.

Aim: 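Seek colon cancer weak points whose silencing resembles KSR1 loss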 (primary screen)
System: HCT116 human colon cancer cells
Reagents: siRNA pool against human genes, 50 nM siRNA
Read-out: 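After 50 nM siRNA pool, branched-DNA assay measures six marker transcripts per well, minus blank, normalised to the geometric mean of two housekeeping transcripts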
Scale: BNIP3L mRNA: higher = more BNIP3L transcript after knockdown; NDRG1 mRNA: higher = more NDRG1 transcript after knockdown

After knock-down of PPIL2 (peptidylprolyl isomerase like 2) [SID363998765] the results were BNIP3L mRNA, set 1 = 0.129; NDRG1 mRNA, set 1 = 1.34.
With knock-down of CNN3 (calponin 3) [SID363993054] the results were BNIP3L mRNA, set 1 = 0.0775; NDRG1 mRNA, set 1 = 0.101.
Depletion of PRRC2C (proline rich coiled-coil 2C) [SID363999344] gave: BNIP3L mRNA, set 1 = 0.232; NDRG1 mRNA, set 1 = 0.307.
Against VAMP3 (vesicle associated membrane protein 3) [SID363995737], the entry reads BNIP3L mRNA, set 1 = 0.102; NDRG1 mRNA, set 1 = 0.245.
Depletion of BCL2L11 (BCL2 like 11) [SID363997331] gave: BNIP3L mRNA, set 1 = 0.1; NDRG1 mRNA, set 1 = 0.297.
Knock-down of AMIGO1 (adhesion molecule with Ig like domain 1) [SID364005444] gave: BNIP3L mRNA, set 1 = 0.317; NDRG1 mRNA, set 1 = 0.201.
After knock-down of WHRN (whirlin) [SID363999471], the record shows BNIP3L mRNA, set 1 = 0.123; NDRG1 mRNA, set 1 = 0.244.
MGC40069 (retired record) [SID364004959] gave BNIP3L mRNA, set 1 = 0.172; NDRG1 mRNA, set 1 = 1.52.
WNT9A (Wnt family member 9A) [SID363994507] gave BNIP3L mRNA, set 1 = 0.0621; NDRG1 mRNA, set 1 = 0.203.
Against GLYAT (glycine-N-acyltransferase) [SID363996713], the values are BNIP3L mRNA, set 1 = 0.0747; NDRG1 mRNA, set 1 = 0.11.
MCM4 (minichromosome maintenance complex component 4) [SID363996783] showed BNIP3L mRNA, set 1 = 0.0621; NDRG1 mRNA, set 1 = 0.0494.
With knock-down of IL9R (interleukin 9 receptor) [SID363993387], the record shows BNIP3L mRNA, set 1 = 0.195; NDRG1 mRNA, set 1 = 0.224.
Depletion of CDC37L1 (cell division cycle 37 like 1, HSP90 cochaperone) [SID364000638] came out at: BNIP3L mRNA, set 1 = 0.085; NDRG1 mRNA, set 1 = 0.198.

Copied from the listing for reference:
VAMP3 (vesicle associated membrane protein 3) [SID363995737] → BNIP3L mRNA, set 1: 0.102; NDRG1 mRNA, set 1: 0.245
BCL2L11 (BCL2 like 11) [SID363997331] → BNIP3L mRNA, set 1: 0.1; NDRG1 mRNA, set 1: 0.297
AMIGO1 (adhesion molecule with Ig like domain 1) [SID364005444] → BNIP3L mRNA, set 1: 0.317; NDRG1 mRNA, set 1: 0.201

The results go on.
Silencing of ABHD14A (abhydrolase domain containing 14A) [SID363999472] came out at: BNIP3L mRNA, set 1 = 0.107; NDRG1 mRNA, set 1 = 0.141.
After knock-down of MYT1L (myelin transcription factor 1 like) [SID364005123], the screen gave BNIP3L mRNA, set 1 = 0.105; NDRG1 mRNA, set 1 = 0.144.
After knock-down of LGALS13 (galectin 13) [SID363998392] the results were BNIP3L mRNA, set 1 = 0.172; NDRG1 mRNA, set 1 = 0.0784.
With knock-down of RRM2B [SID363999664] the results were BNIP3L mRNA, set 1 = 0.0648; NDRG1 mRNA, set 1 = 0.0825.
POLR2E (RNA polymerase II, I and III subunit E) [SID363993855] scored BNIP3L mRNA, set 1 = 0.0677; NDRG1 mRNA, set 1 = 0.776.
CYTH1 (cytohesin 1) [SID363995719] scored BNIP3L mRNA, set 1 = 0.065; NDRG1 mRNA, set 1 = 0.0726.
Against TUG1 (taurine up-regulated 1) [SID364000628], the entry reads BNIP3L mRNA, set 1 = 0.589; NDRG1 mRNA, set 1 = 2.94.
CCDC86 (coiled-coil domain containing 86) [SID364002747] showed BNIP3L mRNA, set 1 = 0.088; NDRG1 mRNA, set 1 = 0.253.
With knock-down of CFAP20 (cilia and flagella associated protein 20) [SID363998366], the record shows BNIP3L mRNA, set 1 = 0.0921; NDRG1 mRNA, set 1 = 0.101.
EEA1 (early endosome antigen 1) [SID363994648] showed BNIP3L mRNA, set 1 = 0.0771; NDRG1 mRNA, set 1 = 0.159.
Silencing of FZD4 (frizzled class receptor 4) [SID363998128] resulted in: BNIP3L mRNA, set 1 = 0.132; NDRG1 mRNA, set 1 = 0.28.
With knock-down of LRP4 (LDL receptor related protein 4) [SID364005082], the screen gave BNIP3L mRNA, set 1 = 0.136; NDRG1 mRNA, set 1 = 0.113.
Silencing of OVOL2 (ovo like zinc finger 2) [SID364002104] resulted in: BNIP3L mRNA, set 1 = 0.0722; NDRG1 mRNA, set 1 = 0.0726.
With knock-down of UFSP2 (UFM1 specific peptidase 2) [SID364001003] the results were BNIP3L mRNA, set 1 = 0.0769; NDRG1 mRNA, set 1 = 0.0744.
Depletion of PRRC2A (proline rich coiled-coil 2A) [SID363995606] resulted in: BNIP3L mRNA, set 1 = 0.318; NDRG1 mRNA, set 1 = 0.299.
